In PubChem BioAssay AID493014 (National Center for Advancing Translational Sciences (NCATS), 2011):
The other results are listed elsewhere or left out. Further columns of the screen follow, without active or inactive calls. Most of these compounds were active or inconclusive in the main read-out, so they are no random draw. Potencies come from curve fits of mixed quality, noted in brackets.

Assay: qHTS Assay to Find Inhibitors of Chronic Active B-Cell Receptor Signaling
Conditions: ABC-DLBCL IkBa-CBG/CBR reporter, luminescence ratio (green luciferase fused to IkBa over red control in TMD8 lymphoma cells), 4 h
Procedure, shortened: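 TMD8 ABC-DLBCL cells carrying doxycycline-inducible green luciferase fused to IkappaBalpha plus unfused red luciferase were exposed to compounds (up to 46 uM) for 4 hrs at 37C. Activity came from the overlap-corrected green/red luminescence ratio.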

[1] = measured here: CBR red luminescence, cell number
[2] = measured here: IkBa-CBG green luminescence

Row | Structure (SMILES) | AC50 [1] | AC50 [2]
1 | Cc1ccc(NC(=O)NC2CCN(S(=O)(=O)c3ccc(F)cc3)CC2)cc1 | 0.231 µM [falling, full curve, poor fit] | –
2 | CCOC(=O)CS(=O)(=O)c1nc(-c2ccccc2)cc(C(F)(F)F)n1 | 6.31 µM [falling, partial curve] | 14.1 µM [rising, partial curve, poor fit]
3 | COc1ccc([C@@H]2[C@@H]3C(=O)N(C(C)(C)C)C(=O)[C@@H]3[C@]3(Cc4ccc(Cl)cc4)C(=O)N(c4ccc(C)cc4)C(=O)N23)cc1 | 16.4 µM [falling, partial curve] | –
4 | COc1ccc(CCn2c(-c3cccc([N+](=O)[O-])c3)nc3nc4ccccc4nc32)cc1OC | 1.84 µM [rising, full curve] | –
5 | C/C(=N\NC(=O)c1ccc2c(c1)OCO2)c1ccc2c(c1)OCO2 | 6.31 µM [falling, partial curve, poor fit] | –
6 | CCCCNc1c(-c2ccc(Sc3ccc(OC)cc3)cc2)nc2cc(C)ccn12 | 9.2 µM [falling, single point] | –
7 | O=C(Nc1nnc(S(=O)(=O)N2CCCCCC2)s1)c1ccccc1 | 12.6 µM [rising, partial curve] | –
8 | COc1ccc(C(=O)N2CCc3cc(OC)c(OC)cc3C2c2ccc(OC)c(OC)c2)cc1OC (configuration not stated) | 0.316 µM [rising, full curve, poor fit] | –
9 | CCn1ccnc1CN(C)Cc1cn(-c2cccc(C)c2)nc1-c1cccc(F)c1 | 20 µM [falling, partial curve, poor fit] | –
10 | Cc1cccc(NS(=O)(=O)Cc2ccccc2)c1C | 12.6 µM [rising, single point] | –
11 | COc1ccc(S(=O)(=O)N2CCOCC2)cc1C(=O)N1CCCCC1 | 0.251 µM [rising, full curve] | –
12 | COc1ccc2c(CC(=O)Nc3nccs3)coc2c1 | 5.01 µM [falling, partial curve, poor fit] | 12.6 µM [rising, partial curve, poor fit]
13 | O=C1NN(c2ccccc2)C(=O)/C1=C/c1coc2ccccc2c1=O | 13 µM [falling, partial curve] | –
14 | Cc1ccc(-n2cc(CNCC3CC(=O)N(C4CC4)C3)c(-c3cccc(C)c3)n2)cc1 (configuration not stated) | 35.5 µM [falling, single point] | –
15 | Cc1ccc(C(=O)CNc2ccc(F)cc2)cc1 | 20.6 µM [falling, single point] | –
16 | O=C(CN1CCCC1)OCCCc1ccccc1 | 25.9 µM [rising, single point] | –
17 | CCC(=O)Nc1ncc2c(n1)CC(c1ccco1)CC2=O (configuration not stated) | 29.1 µM [falling, single point] | –
18 | CCCCNC(=O)c1onc(CSc2cccc(F)c2)c1C(=O)O | 35.5 µM [falling, single point] | 35.5 µM [rising, partial curve, poor fit]
19 | CN(C)CCCNC(=O)C[C@H]1C[C@H](C(=O)N2CCCCC2)[C@@]2(C)c3[nH]c4ccc(Cl)cc4c3CCN2C1=O | 29.1 µM [falling, single point] | –

Row | Structure (SMILES) | AC50 [1] | AC50 [2]
20 | O=C(C1CCN(S(=O)(=O)c2ccc(Cl)cc2)CC1)N1CCOCC1 | 32.6 µM [rising, single point] | –
21 | Cc1csc(NC(=O)CCc2c(C)nc3cc(-c4cccc(F)c4)nn3c2C)n1 | 16.4 µM [falling, partial curve, poor fit] | –
22 | C/C(=N\Nc1nc2ccccc2[nH]1)c1ccc(N2CCOCC2)cc1 | 10 µM [falling, partial curve] | –
23 | Cc1cc(C)c(C)c(S(=O)(=O)N2C(=S)NC(=O)C2C(C)C)c1C (configuration not stated) | 20 µM [rising, partial curve, poor fit] | –
24 | COC(=O)c1ccccc1NC(=S)N(Cc1ccc2c(c1)OCO2)Cc1cc2cccc(C)c2[nH]c1=O | 29.1 µM [rising, single point] | –
25 | O=C(Cn1cccc1C(=O)c1ccccc1)NCc1ccccc1 | 5.8 µM [rising, partial curve, poor fit] | –
26 | COC(=O)c1nccc2c1[nH]c1ccccc12 | 29.1 µM [falling, single point] | –
27 | Cc1ccc2nc(N=C(N)N)nc(C)c2c1 | 3.98 µM [falling, partial curve] | 1.26 µM [rising, full curve, poor fit]
28 | O=C(/C=C/c1ccco1)NC(=S)Nc1cc(-c2nc3ccccc3s2)ccc1Cl | 0.651 µM [rising, full curve, poor fit] | –
29 | CN(CC(=O)Nc1cccc(F)c1)C(=O)c1cc(-c2cccs2)nn1-c1ccccc1 | 29.1 µM [falling, single point] | –
30 | CCCC(=O)Nc1ccc(NC(=O)c2ccccn2)cn1 | 10 µM [falling, partial curve, poor fit] | –
31 | O=C(COC(=O)C1=COCCO1)Nc1ccccc1 | 22.4 µM [falling, single point] | –
32 | COc1ccc2cc(CCNC(=O)CC(C)(C)C)c(=O)[nH]c2c1 | 8.2 µM [rising, partial curve, poor fit] | –
33 | COCCn1c(-c2ccco2)nc2nc3ccccc3nc21 | 7.31 µM [falling, partial curve, poor fit] | –
34 | Cc1nn(Cc2c(F)c(F)c(F)c(F)c2F)c(C)c1NC(=O)c1ccc(COc2ccc(Cl)cc2Cl)o1 | 29.1 µM [falling, single point] | –
35 | CCOC(=O)C1=CC[C@H]2c3c(c4ccc(OC)cc4n3C)C(=O)C1N2S(=O)(=O)c1ccc(C)cc1 | 16.4 µM [falling, partial curve] | –
36 | C/C(=N/NC(=O)c1ccoc1C)c1ccc(N2CCOCC2)cc1 | 4.61 µM [falling, partial curve, poor fit] | –
37 | CN(C)C(=O)c1coc2nc3ccccc3nc12 | 11.2 µM [falling, partial curve, poor fit] | –
38 | Cc1nc(-c2ccc([N+](=O)[O-])cc2)sc1C(=O)O | 5.01 µM [falling, partial curve] | –
